Laboratory results as given in PMC10762189.
No constants are given. Whether binding was seen depends on the method and setting. In cells and extracts the contact can be indirect. Some results given as binding are weak or reduced against the parent protein; the word gives no strength.

Molecular target: T1, SLC25A46 (endogenous, liver) (mouse (endogenous in liver)) (UniProt Q9CQS4)
T1 sequence: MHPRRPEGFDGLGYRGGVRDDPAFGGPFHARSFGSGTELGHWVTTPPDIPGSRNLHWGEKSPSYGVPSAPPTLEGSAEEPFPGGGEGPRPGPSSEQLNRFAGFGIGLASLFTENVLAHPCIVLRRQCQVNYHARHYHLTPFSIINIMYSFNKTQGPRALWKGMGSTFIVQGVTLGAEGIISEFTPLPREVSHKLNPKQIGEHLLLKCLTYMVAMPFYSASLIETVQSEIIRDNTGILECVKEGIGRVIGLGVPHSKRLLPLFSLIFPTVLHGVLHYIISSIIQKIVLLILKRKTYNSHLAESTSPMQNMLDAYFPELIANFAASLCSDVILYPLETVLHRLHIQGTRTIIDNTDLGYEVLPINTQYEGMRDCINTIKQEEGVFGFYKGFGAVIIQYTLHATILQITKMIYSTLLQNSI
Experiment: co-IP; liver lysates with anti-GFP (control) or anti-SLC25A46 at 4 °C overnight; immunoblot

B1: Mic19 (endogenous, liver) (protein, UniProt Q9CRB9 1-227)
chain: MGGTASTRRVTFEADENENITVVKGIRLSENVIDRMKESSPSGSKSQRYSSVYGASVSDEDLKRRVAEELALEQAKKESEHQRRLKQARDLERERAAANEQLTRAVLRERISSEEERMKAKHLARQLEEKDRVMRKQDAFYKEQLARLEERSSEFYKVTTEEYQKAAEEVEAKFKRYEYHPVCADLQTKILQCYRQNTQQTLSCSALASQYMHCVNHAKQSMLEKGG
binding: binds

B2: EMC2 (endogenous, liver) (protein, UniProt Q9CRD2 1-297)
chain: MAKVTERYDVTWEEMRDKMRKWREENSRNSEQIMEVGEELINDYASKLGDDIWIIYEQVMIAALDYGRDDLALFCLQELRRQFPGSHRVKRLTGMRFEAMERYDDAIQLYDRILQEDPTNTAARKRKIAIRKAQGKTVEAIRELNEYLEQFVGDQEAWHELAELYINEHDYAKAAFCLEELMMTNPHNHLYCQQYAEVKYTQGGLENLELSRKYFAQALKLNNRNMRALFGLYMSASHIASNPKASAKMKKDNIKYASWAANQINRAYQFAGRSKKETKYSLKAVEDMLETLQITQS
binding: binds
